Data from the supplement of paper PMC10470496.
Where a name gives a salt, the structure may show the parent alone. The list shows a part of the results. Many values rest on one well or one pass, so single values are uncertain.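 The strains were three CDC resistance-bank clinical C. auris isolates from clades III, IV and I, cultured in RPMI-1640 at 35°C. Growth was background-corrected OD600 versus vehicle-only wells on the same plate. A hit needed >50% inhibition in two or more strains plus a plate-corrected B-score exceeding 0.1.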

tested on: C. auris AR-384; assay: growth relative to vehicle control (OD600 ratio) (fraction); higher = less inhibition; conditions: 1 µM; 24 h

Structure (SMILES) | growth
COc1ncc(-c2ccc3nccc(-c4ccnnc4)c3c2)cc1NS(=O)(=O)c1ccc(F)cc1F | 0.97
OCc1cc(C(O)CNCCCCCCOCCCCc2ccccc2)ccc1O (stereo unspecified) [Salmeterol Xinafoate] | 1.08
Cc1ncc(C[n+]2csc(CCO)c2C)c(N)n1 [Thiamine HCl (Vitamin B1)] | 0.68
Nc1cccc2c1CN(C1CCC(=O)NC1=O)C2=O (stereo unspecified) [Lenalidomide (CC-5013)] | 0.75
C#C[C@]1(OC(C)=O)CC[C@H]2[C@@H]3CCC4=C[C@@H](OC(C)=O)CC[C@@H]4[C@H]3CC[C@@]21C [Ethynodiol diacetate] | 0.75
Cc1ccc(NC(=O)c2ccc(CN3CC[C@H](N(C)C)C3)c(C(F)(F)F)c2)cc1Nc1nccc(-c2cncnc2)n1 [Bafetinib (INNO-406)] | 1.06
CN(C)C/C=C/C(=O)Nc1cc2c(Nc3ccc(F)c(Cl)c3)ncnc2cc1O[C@H]1CCOC1 [Afatinib (BIBW2992)] | 0.72
CN1C(C(=O)Nc2ccccn2)=C(O)c2ccccc2S1(=O)=O [Piroxicam] | 1.32
Cc1ccnc2c1NC(=O)c1cccnc1N2C1CC1 [Nevirapine] | 0.83
C[N+]1(C)[C@@H]2C[C@@H](OC(=O)C(O)(c3cccs3)c3cccs3)C[C@H]1[C@@H]1O[C@@H]12 [Tiotropium Bromide hydrate] | 0.86
CCCN(CCC)CCc1cccc2c1CC(=O)N2 [Ropinirole HCl] | 0.8
Cc1ncc(CO)c(CO)c1O [Pyridoxine HCl] | 1.04
COc1cc(/C=C/C(=O)N2CCN(CC(=O)N3CCCC3)CC2)cc(OC)c1OC [Cinepazide maleate] | 0.92
O=c1[nH]cnc2c1ncn2[C@H]1CC[C@@H](CO)O1 [Didanosine] | 1.15
Clc1ccc2nsnc2c1NC1=NCCN1 [Tizanidine HCl] | 0.91
CC(=O)Oc1cc2c(s1)CCN(C(C(=O)C1CC1)c1ccccc1F)C2 (stereo unspecified) [Prasugrel] | 0.65
CN1CCN(c2nc(C3=C(c4c[nH]c5ccccc45)C(=O)NC3=O)c3ccccc3n2)CC1 [Sotrastaurin] | 0.83
COc1cc2ncnc(Nc3ccc(F)c(Cl)c3)c2cc1OCCCN1CCOCC1 [Gefitinib (ZD1839)] | 0.67
CCCCOc1cc(C(=O)OCCN(CC)CC)ccc1N [Oxybuprocaine HCl] | 1.2
C[C@@H](c1nc(-c2ccc(C#N)cc2)cs1)[C@](O)(Cn1cncn1)c1cc(F)ccc1F [Isavuconazole] | 0.41
CCCC(=O)Nc1ccc(OCC(O)CNC(C)C)c(C(C)=O)c1 (stereo unspecified) [Acebutolol HCl] | 0.78
CCOc1cc2ncc(C#N)c(Nc3ccc(F)c(Cl)c3)c2cc1NC(=O)/C=C/CN(C)C [Pelitinib (EKB-569)] | 0.79
NC(=O)OCC(COC(N)=O)c1ccccc1 [Felbamate] | 1.1
Cc1c(-c2ccc(O)cc2)n(Cc2ccc(OCCN3CCCCCC3)cc2)c2ccc(O)cc12 [Bazedoxifene Acetate] | 0.83
CCn1cc(C(=O)O)c(=O)c2cc(F)c(N3CCNCC3)nc21 [Enoxacin] | 0.88
CC(C)(O/N=C(\C(=O)N[C@@H]1C(=O)N2C(C(=O)[O-])=C(C[n+]3ccccc3)CS[C@H]12)c1csc(N)n1)C(=O)O [Ceftazidime Pentahydrate] | 1.48
Cc1ccc(S(=O)(=O)NC(=O)NN2CC3CCCC3C2)cc1 (stereo unspecified) [Gliclazide] | 1

same assay, conditions: 10 µM; 24 h

Structure (SMILES) | growth
CC(=O)OC(C)C[N+](C)(C)C (stereo unspecified) [Methacholine chloride] | 0.87
CCCC1O[C@@H]2C[C@H]3[C@@H]4CCC5=CC(=O)C=C[C@]5(C)[C@H]4[C@@H](O)C[C@]3(C)[C@]2(C(=O)CO)O1 (stereo partly specified) [Budesonide] | 0.86
COCCCOc1ccnc(C[S+]([O-])c2nc3ccccc3[nH]2)c1C (stereo unspecified) [Rebeprazole sodium] | 0.75
Cc1nc2c([nH]1)-c1ccccc1N(C(=O)c1ccc(NC(=O)c3ccccc3-c3ccccc3)cc1)CC2 [Conivaptan HCl] | 1.14
O=C1CN(/N=C/c2ccc([N+](=O)[O-])o2)C(=O)N1 [Nitrofurantoin] | 0.63
Cc1noc(NS(=O)(=O)c2ccc(N)cc2)c1C [Sulfisoxazole] | 1.08
C[C@@H]1C[C@H]2[C@@H]3CCC4=CC(=O)C=C[C@]4(C)[C@@]3(F)[C@@H](O)C[C@]2(C)[C@@]1(O)C(=O)CO [Dexamethasone (DHAP)] | 1.24
COc1cc2nc(N3CCN(C(=O)C4CCCO4)CC3)nc(N)c2cc1OC (stereo unspecified) [Terazosin HCl] | 0.7
COCCCN1CCC(NC(=O)c2cc(Cl)c(N)c3c2OCC3)CC1 [Prucalopride] | 1.37
COc1cccc2c1C(=O)c1c(O)c3c(c(O)c1C2=O)C[C@@](O)(C(C)=O)C[C@@H]3O[C@H]1C[C@H](N)[C@H](O)[C@H](C)O1 [Daunorubicin HCl] | 0.77
CC(=O)OCC[N+](C)(C)C [Acetylcholine Chloride] | 1.49
NC(=O)N1CCC(CC(=O)N2CCC([C@H]3c4ncc(Br)cc4CCc4cc(Cl)cc(Br)c43)CC2)CC1 [Lonafarnib] | 0.89
COc1ncc(-c2ccc3nccc(-c4ccnnc4)c3c2)cc1NS(=O)(=O)c1ccc(F)cc1F | 0.81
OCc1cc(C(O)CNCCCCCCOCCCCc2ccccc2)ccc1O (stereo unspecified) [Salmeterol Xinafoate] | 1.08
Cc1ncc(C[n+]2csc(CCO)c2C)c(N)n1 [Thiamine HCl (Vitamin B1)] | 0.99
Nc1cccc2c1CN(C1CCC(=O)NC1=O)C2=O (stereo unspecified) [Lenalidomide (CC-5013)] | 0.53
C#C[C@]1(OC(C)=O)CC[C@H]2[C@@H]3CCC4=C[C@@H](OC(C)=O)CC[C@@H]4[C@H]3CC[C@@]21C [Ethynodiol diacetate] | 0.65
Cc1ccc(NC(=O)c2ccc(CN3CC[C@H](N(C)C)C3)c(C(F)(F)F)c2)cc1Nc1nccc(-c2cncnc2)n1 [Bafetinib (INNO-406)] | 1.42
CN(C)C/C=C/C(=O)Nc1cc2c(Nc3ccc(F)c(Cl)c3)ncnc2cc1O[C@H]1CCOC1 [Afatinib (BIBW2992)] | 0.7
CN1C(C(=O)Nc2ccccn2)=C(O)c2ccccc2S1(=O)=O [Piroxicam] | 0.92

Structure (SMILES) | growth
Cc1ccnc2c1NC(=O)c1cccnc1N2C1CC1 [Nevirapine] | 1.21
C[N+]1(C)[C@@H]2C[C@@H](OC(=O)C(O)(c3cccs3)c3cccs3)C[C@H]1[C@@H]1O[C@@H]12 [Tiotropium Bromide hydrate] | 0.79
CCCN(CCC)CCc1cccc2c1CC(=O)N2 [Ropinirole HCl] | 0.84
Cc1ncc(CO)c(CO)c1O [Pyridoxine HCl] | 0.74
COc1cc(/C=C/C(=O)N2CCN(CC(=O)N3CCCC3)CC2)cc(OC)c1OC [Cinepazide maleate] | 1.02
O=c1[nH]cnc2c1ncn2[C@H]1CC[C@@H](CO)O1 [Didanosine] | 1.36
Clc1ccc2nsnc2c1NC1=NCCN1 [Tizanidine HCl] | 0.58
CC(=O)Oc1cc2c(s1)CCN(C(C(=O)C1CC1)c1ccccc1F)C2 (stereo unspecified) [Prasugrel] | 0.89
CN1CCN(c2nc(C3=C(c4c[nH]c5ccccc45)C(=O)NC3=O)c3ccccc3n2)CC1 [Sotrastaurin] | 0.92
COc1cc2ncnc(Nc3ccc(F)c(Cl)c3)c2cc1OCCCN1CCOCC1 [Gefitinib (ZD1839)] | 0.51
CCCCOc1cc(C(=O)OCCN(CC)CC)ccc1N [Oxybuprocaine HCl] | 1.36
C[C@@H](c1nc(-c2ccc(C#N)cc2)cs1)[C@](O)(Cn1cncn1)c1cc(F)ccc1F [Isavuconazole] | 0.29
CCCC(=O)Nc1ccc(OCC(O)CNC(C)C)c(C(C)=O)c1 (stereo unspecified) [Acebutolol HCl] | 0.79
CCOc1cc2ncc(C#N)c(Nc3ccc(F)c(Cl)c3)c2cc1NC(=O)/C=C/CN(C)C [Pelitinib (EKB-569)] | 1.09
NC(=O)OCC(COC(N)=O)c1ccccc1 [Felbamate] | 1.39
Cc1c(-c2ccc(O)cc2)n(Cc2ccc(OCCN3CCCCCC3)cc2)c2ccc(O)cc12 [Bazedoxifene Acetate] | 0.77
CCn1cc(C(=O)O)c(=O)c2cc(F)c(N3CCNCC3)nc21 [Enoxacin] | 0.68
CC(C)(O/N=C(\C(=O)N[C@@H]1C(=O)N2C(C(=O)[O-])=C(C[n+]3ccccc3)CS[C@H]12)c1csc(N)n1)C(=O)O [Ceftazidime Pentahydrate] | 1.46
Cc1ccc(S(=O)(=O)NC(=O)NN2CC3CCCC3C2)cc1 (stereo unspecified) [Gliclazide] | 1.04
